According to US11981953B2, “Method to screen compounds for antifungal activity and pharmaceutical compositions and methods to treat fungal diseases by inhibiting spore germination” (WISCONSIN ALUMNI RESEARCH FOUNDATION, priority 2018, dated 2024):

What was measured:
Format in all cases: cell-based
[1] = test system: Aspergillus Fumigatus (AF293); assay: Aspergillus fumigatus MIC on conidia; conditions: for MIC: Aspergillus fumigatus
Method: Conidia at a final concentration of 2×10^4 cells were incubated in RPMI, 0.33 M MOPS, and 2% glucose at pH 7 at varying concentrations of inhibitors, with a final volume of 200 μL.

[2] = test system: Cryptococcus neoformans (JEC21); assay: MIC/MFC experiments (EUCAST based), JEC21; conditions: 48 h
Method: (§1) All minimum inhibitory concentration (MIC) experiments were based on EUCAST methodology. […] After 6-hour incubation, yeast cells were washed in 1×PBS and quantified using a hemocytometer. […] Cryptococcus neoformans cells were incubated for 2 days at 30° C. while Candida albicans strains were incubated for 2 days at 35° C. OD600 readings were used to assess the MIC values for each drug. To determine minimum fungicidal concentrations (MFC) values, 3 μL per well were plated on YPD and allowed to grow for 2 days.

[3] = test system: Cryptococcus neoformans (H99); assay: MIC/MFC experiments (EUCAST based), H99; conditions: 48 h
Method: as §1

[4] = test system: Cryptococcus neoformans spores (JEC20 x JEC21); assay: Quantitative germination assay (microfluidic devices, cell size and shape); conditions: 25 μg/mL
Method: All germination assays are based on Barkal et al., 2016. Briefly, microfluidic devices were loaded with 1×10^5 spores, and at 0 hours, SD media with drug of interest, were added to the sample. Spores were allowed to germinated at 30° C. in a humidified chamber and cells were monitored every two (2) hours for 16 hours. Each assay was performed in two (2) individual wells with three (3) field of views acquired from each well. All images were analyzed as previously described based on cell shape and size. Population ratio of spores, intermediate, and yeast cells were determined. Error bars in plots are based on variation between all fields of view acquired. All experiments were able to be reproduced independently. After the 16-hour experiment, samples were plated on YPD and allowed to grow at 30° C. to determine if drugs were completely germicidal or not based on lack of growth. If assays were unable to be performed in microfluidic devices, the […] spores were incubated in identical conditions outside of PDMS devices and only loaded into devices for image acquisition.
Once yeast replication inhibition was confirmed, the ability of the drugs to inhibit spore germination was characterized using a quantified microfluidics-based germination assay where the changes in size and morphology are monitored as small ovoid spores germinate into large circular yeast.

[5] = test system: Candida albicans (SC5314); assay: MIC/MFC experiments (EUCAST based), Candida albicans; conditions: SC5314, 48 h
Method: as §1

For CC(C)(C)CC(C)(C)c1ccc(OCCOCC[N+](C)(C)Cc2ccccc2)cc1 [Benzethonium chloride], the MIC [1] was 12.5 µg/mL, the “Ability to inhibit Aspergillus fumigatus” value ([1]; testing performed on conidia) was “able to inhibit A. fumigatus” and the MIC [2] was 3.13 µg/mL. The MFC ([2]; Cryptococcus neoformans) was 3.13 µg/mL, the MIC [3] was 3.13 µg/mL and the MFC ([3]; Cryptococcus neoformans) was 3.13 µg/mL. The “Inhibition of spore germination” value ([4]; 16 hours) was “inhibit spore germination completely”, the “Germicidal” value ([4]; plated on YPD after the 16-hour experiment) was “fully germicidal” and the MFC [5] was 12.5 µg/mL. It also gave an MIC [5] of 6.25 µg/mL.

In the case of CCCCCCCCCCCCCCCC[n+]1ccccc1 [Cetylpyridinium chloride], the MIC [1] is reported as 1.56 µg/mL, the MIC [2] is reported as < 0.78 µg/mL and the MIC [3] is reported as < 0.78 µg/mL. The MIC [5] was 1.56 µg/mL.
